Results are given in words; binding and its absence hold for the method and conditions named. In cells and extracts the contact can be indirect. Some binding calls cover weakened binding; strength is not graded here.
B1: SYNJ2 (protein, UniProt O15056 1-1496)
chain: MALSKGLRLLGRLGAEGDCSVLLEARGRDDCLLFEAGTVATLAPEEKEVIKGQYGKLTDAYGCLGELRLKSGGTSLSFLVLVTGCTSVGRIPDAEIYKITATDFYPLQEEAKEEERLIALKKILSSGVFYFSWPNDGSRFDLTVRTQKQGDDSSEWGNSFFWNQLLHVPLRQHQVSCCDWLLKIICGVVTIRTVYASHKQAKACLVSRVSCERTGTRFHTRGVNDDGHVSNFVETEQMIYMDDGVSSFVQIRGSVPLFWEQPGLQVGSHHLRLHRGLEANAPAFDRHMVLLKEQYGQQVVVNLLGSRGGEEVLNRAFKKLLWASCHAGDTPMINFDFHQFAKGGKLEKLETLLRPQLKLHWEDFDVFTKGENVSPRFQKGTLRMNCLDCLDRTNTVQSFIALEVLHLQLKTLGLSSKPIVDRFVESFKAMWSLNGHSLSKVFTGSRALEGKAKVGKLKDGARSMSRTIQSNFFDGVKQEAIKLLLVGDVYGEEVADKGGMLLDSTALLVTPRILKAMTERQSEFTNFKRIRIAMGTWNVNGGKQFRSNVLRTAELTDWLLDSPQLSGATDSQDDSSPADIFAVGFEEMVELSAGNIVNASTTNKKMWGEQLQKAISRSHRYILLTSAQLVGVCLYIFVRPYHVPFIRDVAIDTVKTGMGGKAGNKGAVGIRFQFHSTSFCFICSHLTAGQSQVKERNEDYKEITQKLCFPMGRNVFSHDYVFWCGDFNYRIDLTYEEVFYFVKRQDWKKLLEFDQLQLQKSSGKIFKDFHEGAINFGPTYKYDVGSAAYDTSDKCRTPAWTDRVLWWRKKHPFDKTAGELNLLDSDLDVDTKVRHTWSPGALQYYGRAELQASDHRPVLAIVEVEVQEVDVGARERVFQEVSSFQGPLDATVVVNLQSPTLEEKNEFPEDLRTELMQTLGSYGTIVLVRINQGQMLVTFADSHSALSVLDVDGMKVKGRAVKIRPKTKDWLKGLREEIIRKRDSMAPVSPTANSCLLEENFDFTSLDYESEGDILEDDEDYLVDEFNQPGVSDSELGGDDLSDVPGPTALAPPSKSPALTKKKQHPTYKDDADLVELKRELEAVGEFRHRSPSRSLSVPNRPRPPQPPQRPPPPTGLMVKKSASDASISSGTHGQYSILQTARLLPGAPQQPPKARTGISKPYNVKQIKTTNAQEAEAAIRCLLEARGGASEEALSAVAPRDLEASSEPEPTPGAAKPETPQAPPLLPRRPPPRVPAIKKPTLRRTGKPLSPEEQFEQQTVHFTIGPPETSVEAPPVVTAPRVPPVPKPRTFQPGKAAERPSHRKPASDEAPPGAGASVPPPLEAPPLVPKVPPRRKKSAPAAFHLQVLQSNSQLLQGLTYNSSDSPSGHPPAAGTVFPQGDFLSTSSATSPDSDGTKAMKPEAAPLLGDYQDPFWNLLHHPKLLNNTWLSKSSDPLDSGTRSPKRDPIDPVSAGASAAKAELPPDHEHKTLGHWVTISDQEKRTALQVFDPLAKT

By UniProt entry, the sequences of proteins in these tests, tags left out. Where a name states a change or a piece, a line headed by the entry shows the natural chain unless it says otherwise. Chains listed by the source or under a name are the forms on record and can include a tag or linker. Residues count along the entry.
butyrophilin-3 isoform A1 (BTN3A1) (human (endogenous in MZ1851rc)) (O00481, residues 30-513): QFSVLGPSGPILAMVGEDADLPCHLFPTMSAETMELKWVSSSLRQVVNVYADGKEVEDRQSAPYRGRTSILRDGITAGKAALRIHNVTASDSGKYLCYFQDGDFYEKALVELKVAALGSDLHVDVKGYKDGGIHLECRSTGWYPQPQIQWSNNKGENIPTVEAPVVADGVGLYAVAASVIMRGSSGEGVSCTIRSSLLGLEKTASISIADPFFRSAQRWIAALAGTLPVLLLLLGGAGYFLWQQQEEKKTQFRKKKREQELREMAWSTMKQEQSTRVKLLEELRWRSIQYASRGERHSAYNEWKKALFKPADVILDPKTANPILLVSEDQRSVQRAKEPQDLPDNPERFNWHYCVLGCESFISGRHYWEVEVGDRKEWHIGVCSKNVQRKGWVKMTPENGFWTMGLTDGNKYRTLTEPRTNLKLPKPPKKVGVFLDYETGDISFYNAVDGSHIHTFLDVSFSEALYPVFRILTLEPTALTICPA
phospho-deficient BTN3A1 variant (S296 and T297 substituted with alanine), BTN3A1-Flag (O00481, form named): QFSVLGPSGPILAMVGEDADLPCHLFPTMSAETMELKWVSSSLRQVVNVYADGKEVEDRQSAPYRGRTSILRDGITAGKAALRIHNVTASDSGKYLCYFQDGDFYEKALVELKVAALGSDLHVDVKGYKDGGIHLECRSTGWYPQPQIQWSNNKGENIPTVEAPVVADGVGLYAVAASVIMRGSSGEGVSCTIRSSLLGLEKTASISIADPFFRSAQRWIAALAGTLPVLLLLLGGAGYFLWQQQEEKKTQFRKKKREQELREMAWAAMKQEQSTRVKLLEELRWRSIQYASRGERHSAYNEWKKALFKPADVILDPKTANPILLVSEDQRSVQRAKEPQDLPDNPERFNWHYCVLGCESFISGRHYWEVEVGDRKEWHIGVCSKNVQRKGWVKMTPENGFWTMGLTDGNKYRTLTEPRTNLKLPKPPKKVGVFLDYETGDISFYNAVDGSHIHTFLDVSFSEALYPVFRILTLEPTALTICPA
UniProt Q5VZK9: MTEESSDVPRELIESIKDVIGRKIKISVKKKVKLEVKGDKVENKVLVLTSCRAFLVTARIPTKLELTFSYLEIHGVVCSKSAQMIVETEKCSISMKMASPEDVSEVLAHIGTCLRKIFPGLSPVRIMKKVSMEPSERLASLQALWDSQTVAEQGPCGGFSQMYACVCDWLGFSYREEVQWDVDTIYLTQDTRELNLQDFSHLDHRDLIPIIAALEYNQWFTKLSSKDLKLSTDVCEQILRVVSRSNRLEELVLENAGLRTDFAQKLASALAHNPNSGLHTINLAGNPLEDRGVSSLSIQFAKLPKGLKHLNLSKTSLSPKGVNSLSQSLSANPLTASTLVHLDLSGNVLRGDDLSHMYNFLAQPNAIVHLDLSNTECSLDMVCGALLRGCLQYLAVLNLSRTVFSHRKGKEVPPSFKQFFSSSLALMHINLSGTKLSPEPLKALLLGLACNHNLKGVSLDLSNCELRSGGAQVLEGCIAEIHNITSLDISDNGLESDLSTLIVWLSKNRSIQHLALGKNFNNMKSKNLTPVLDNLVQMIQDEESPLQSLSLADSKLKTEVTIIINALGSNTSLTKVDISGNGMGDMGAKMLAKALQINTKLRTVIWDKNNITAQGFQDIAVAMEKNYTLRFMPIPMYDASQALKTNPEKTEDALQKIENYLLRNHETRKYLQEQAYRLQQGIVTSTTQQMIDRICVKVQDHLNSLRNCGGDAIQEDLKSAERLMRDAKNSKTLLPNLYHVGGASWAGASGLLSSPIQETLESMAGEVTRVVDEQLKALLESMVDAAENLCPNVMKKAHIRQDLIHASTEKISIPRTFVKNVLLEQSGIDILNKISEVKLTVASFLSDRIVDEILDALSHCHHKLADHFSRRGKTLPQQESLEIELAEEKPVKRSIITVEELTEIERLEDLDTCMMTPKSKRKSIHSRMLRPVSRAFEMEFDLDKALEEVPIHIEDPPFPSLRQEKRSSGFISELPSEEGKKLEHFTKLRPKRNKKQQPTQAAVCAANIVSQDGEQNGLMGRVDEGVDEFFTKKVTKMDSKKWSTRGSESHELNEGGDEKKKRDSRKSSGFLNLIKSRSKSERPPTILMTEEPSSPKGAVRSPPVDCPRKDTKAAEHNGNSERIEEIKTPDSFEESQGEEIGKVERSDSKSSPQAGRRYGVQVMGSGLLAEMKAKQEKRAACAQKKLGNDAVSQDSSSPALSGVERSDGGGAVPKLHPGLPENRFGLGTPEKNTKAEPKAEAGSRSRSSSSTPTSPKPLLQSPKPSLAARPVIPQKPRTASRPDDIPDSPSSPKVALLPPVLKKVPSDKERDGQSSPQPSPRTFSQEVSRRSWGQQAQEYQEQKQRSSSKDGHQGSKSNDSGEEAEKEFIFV
UniProt P62745: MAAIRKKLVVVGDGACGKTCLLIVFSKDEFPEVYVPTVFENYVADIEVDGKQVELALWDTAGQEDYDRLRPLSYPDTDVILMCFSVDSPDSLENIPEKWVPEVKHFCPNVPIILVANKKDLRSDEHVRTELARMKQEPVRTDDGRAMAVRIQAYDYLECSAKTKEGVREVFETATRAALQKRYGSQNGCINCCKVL

What was measured:
[1] = molecular target: butyrophilin-3 isoform A1 (BTN3A1) (human (endogenous in MZ1851rc)) (UniProt O00481); assay: proximity ligation
[2] = molecular target: phospho-deficient BTN3A1 variant (S296 and T297 substituted with alanine), BTN3A1-Flag (human) (UniProt O00481); assay: FRET or BRET

Row | Molecule | binding [1] | binding [2]
1 | CARMIL1 (from UniProt Q5VZK9 1-1371) | binds | 
2 | RhoB (from UniProt P62745 1-196) |  | no binding
3 | B1 | binds | 

From doi:10.1101/2024.11.19.624272
